PubChem BioAssay AID1259405 | NCATS | 2018

Test: 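Silenced genes that increase secreted GFP made by CHO cells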 (primary screen)
Cells: Chinese hamster CHO-K1 ovary cells with stable secreted eGFP expression
Reagents: single siRNA against mouse genes, 0.8 pmol siRNA per well (2 µl of 400 nM stock)
Timing: 3 days
Measurement: 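Per-well intracellular GFP measured by laser scanning cytometry, plus viability from ATP luminescence, each relative to plate median of non-targeting control wells, in %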
Reading the numbers: GFP, % of control: higher = more GFP per well, higher productivity; viability (ATP), % of control: higher = more viable cells (more ATP)
Active means: 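a knock-down is called active if GFP reaches 120% or more of non-targeting control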
The deposit covers about 50,000 reagents; shown is a random part of them. About 4,000 of them (8%) count as active. 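Mouse siRNA library applied to hamster cells; one well for each siRNA.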 Unmarked entries are inactive. Reagents against one gene are numbered here.

| Target gene | siRNA no. | GFP, % of control | viability (ATP), % of control |
| --- | --- | --- | --- |
| Or8g4 | 1 | 58.6 | 76.1 |
| Or8g4 | 2 | 104 | 53.3 |
| Or8g4 | 3 | 74.2 | 77.8 |
| Abce1 | 1 | 118 | 111 |
| Abce1 | 2 | 39.6 | 59.6 |
| Lef1 | 1 | 86.3 | 124 |
| Lef1 | 2 | 145 (active) | 73.1 |
| Lef1 | 3 | 52.1 | 53.5 |
| Cacnb3 | 1 | 85.8 | 67.3 |
| Cacnb3 | 2 | 53.4 | 40.9 |
| Cacnb3 | 3 | 85.8 | 69 |
| Or11n2 | 1 | 97.8 | 61.1 |
| Or11n2 | 2 | 70.1 | 80.7 |
| Or11n2 | 3 | 94.8 | 72.7 |
| Chat | 1 | 113 | 104 |
| Chat | 2 | 105 | 135 |
| Chat | 3 | 79 | 83.1 |
| 1700055D18Rik | 1 | 77.9 | 75.2 |
| 1700055D18Rik | 2 | 72.3 | 46.8 |
| 1700055D18Rik | 3 | 70.8 | 71.5 |
| Cpe | 1 | 148 (active) | 128 |
| Cpe | 2 | 70.6 | 64.5 |
| Cpe | 3 | 57.3 | 50.7 |
| Cpe | 4 | 113 | 95.1 |
| Cpe | 5 | 122 (active) | 96.8 |
| Cpe | 6 | 95.7 | 68.8 |
| Lipk | 1 | 44.2 | 94 |
| Lipk | 2 | 89.9 | 85.3 |
| Lipk | 3 | 49 | 74.9 |
| Dalrd3 | 1 | 61.4 | 85.6 |
| Dalrd3 | 2 | 105 | 83.3 |
| Dalrd3 | 3 | 101 | 131 |
| Ccdc97 | 1 | 55.3 | 67.9 |
| Ccdc97 | 2 | 69.5 | 59.6 |
| Ccdc97 | 3 | 9.04 | 18.2 |
| Hgs | 1 | 134 (active) | 79.8 |
| Hgs | 2 | 59.8 | 49.4 |
| Hbp1 | 1 | 77 | 72.8 |
| Hbp1 | 2 | 195 (active) | 81 |
| Hbp1 | 3 | 85.8 | 60 |
| Sulf1 | 1 | 90.6 | 79.8 |
| Sulf1 | 2 | 131 (active) | 82.2 |
| Sulf1 | 3 | 94.8 | 78.4 |
| C4a | 1 | 56.2 | 56.3 |
| C4a | 2 | 52.1 | 25.6 |
| C4a | 3 | 83.5 | 77.1 |
| Pik3ip1 | 1 | 76.7 | 99.7 |
| Pik3ip1 | 2 | 69.1 | 92.2 |
| Pik3ip1 | 3 | 83.2 | 46.4 |
| Smim5 | 1 | 90.6 | 88.1 |
| Smim5 | 2 | 40.3 | 36.9 |
| Smim5 | 3 | 70.2 | 81.8 |
| Tpra1 | 1 | 57.4 | 66.4 |
| Tpra1 | 2 | 55.7 | 74.9 |
| Tpra1 | 3 | 69.6 | 35.7 |
| Scara5 | 1 | 157 (active) | 148 |
| Scara5 | 2 | 48.1 | 61.9 |

8 entries from above in another layout.
Lef1 #2 | GFP, % of control = 145 (active); viability (ATP), % of control = 73.1
Lef1 #3 | GFP, % of control = 52.1; viability (ATP), % of control = 53.5
Cacnb3 #1 | GFP, % of control = 85.8; viability (ATP), % of control = 67.3
Cacnb3 #2 | GFP, % of control = 53.4; viability (ATP), % of control = 40.9
Cacnb3 #3 | GFP, % of control = 85.8; viability (ATP), % of control = 69
Or11n2 #1 | GFP, % of control = 97.8; viability (ATP), % of control = 61.1
Or11n2 #2 | GFP, % of control = 70.1; viability (ATP), % of control = 80.7
Or11n2 #3 | GFP, % of control = 94.8; viability (ATP), % of control = 72.7
